Patent US20150266963A1

Columns and labels:
[1] = target: rhesus recombinant CD70 (FLAG-TNC-rhesus CD70) (rhesus); assay: inhibition ELISA on captured FLAG-TNC-rhesus CD70, mAb titrated, remaining binding of CD27-Fc detected
[2] = target: cynomolgus monkey Flag-TNC-CD70 (cynomolgus monkey); assay: blocking ELISA; cynomolgus Flag-TNC-CD70
[3] = target: human-mouse CD70 chimera chim-2.3 (Flag-TNC-CD70); assay: ELISA; captured chimera
[4] = target: rhesus recombinant CD70 (FLAG-TNC-rhesus CD70) (rhesus); assay: blocking ELISA; rhesus Flag-TNC-CD70
[5] = target: rhesus recombinant CD70 (FLAG-TNC-rhesus CD70) (rhesus); assay: Biacore off-rate; rhesus recombinant CD70 on chip

B1: 59D10 chimeric llama-human mAb (antibody, human IgG1, V domains shown)
VH: EVQLVESGGGLVQPGGSLRLSCAASELSFSISEMTWVRQAPGKGLEWVSGISGVTGGSSTSYADSVKGRFTISRDNDKNTLYLQMNSLIPEDTAVYYCATTSGTYYFIPEYEYWGQGTQVTVSS
VL: QSVLTQPPSVSGSPGKTVTISCAGTSSDVGYGYYVSWYQQFPGMAPKLLIYDVNKRASGIADRFSGSKAGNTASLTISGLQSEDEADYYCASYRSSANAVFGGGTHLTVLG
- binding [1]: no binding (tested: log 4 = 10000 ng/ml)

B2: ARGX-110 (non-fucosylated 41D12 human IgG1) (antibody, V domains shown)
VH: EVQLVESGGGLVQPGGSLRLSCAASGFTFSVYYMNWVRQAPGKGLEWVSDINNEGGTTYYADSVKGRFTISRDNSKNSLYLQMNSLRAEDTAVYYCARDAGYSNHVPIFDSWGQGTLVTVSS
VL: QAVVTQEPSLTVSPGGTVTLTCGLKSGSVTSDNFPTWYQQTPGQAPRLLIYNTNTRHSGVPDRFSGSILGNKAALTITGAQADDEAEYFCALFISNPSVEFGGGTQLTVLG
- binding [2]: binds
- binding [3]: binds
- binding [4]: binds

B3: 59D10 Fab (Fab, V domains shown)
VH: EVQLVESGGGLVQPGGSLRLSCAASELSFSISEMTWVRQAPGKGLEWVSGISGVTGGSSTSYADSVKGRFTISRDNDKNTLYLQMNSLIPEDTAVYYCATTSGTYYFIPEYEYWGQGTQVTVSS
VL: QSVLTQPPSVSGSPGKTVTISCAGTSSDVGYGYYVSWYQQFPGMAPKLLIYDVNKRASGIADRFSGSKAGNTASLTISGLQSEDEADYYCASYRSSANAVFGGGTHLTVLG
- binding [5]: no binding

These are yes or no findings as the source states them, for the method shown. For some assays here: Binding calls can cover weak binding; strength is not graded here.
